Some results are limits rather than exact numbers.

The experiment has as its system Escherichia coli. Kind of experiment: Antibacterial activity against Escherichia coli after 48 hrs. Format: functional.

The compound `CC1(C)S[C@@H]2[C@H](NC(=O)[C@H](N)c3ccccc3)C(=O)N2[C@H]1C(=O)O` [AMPICILLIN] returned an MIC of under 10 µg/mL.

By MIC is commonly meant the smallest concentration in the dilution series that meets the test's criterion for growth inhibition. A high value points to a need for much substance.
